Two substances from article PMC9949044 can be followed below.

No constants are given. Whether binding was seen depends on the method and setting. Binding seen in cells or lysates may run through a third protein. Here binding means that the protein was enriched with, or labelled near, the bait; the list need not be complete.

The target in this test is T1, un-acetylated N-terminal H2B.Z peptide, biotinylated (Toxoplasma gondii).
T1 sequence (peptide, biotin on the C-terminal lysine, K(Biotin)): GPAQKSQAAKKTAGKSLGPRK
Description: affinity purification with mass spectrometry; biotinylated H2B.Z N-terminal peptides (acetylated or un-acetylated) as bait; nuclear extract (NE-PER kit) of extracellular RH tachyzoites; short SDS-PAGE, in-gel trypsin digestion, LC-MS/MS; two independent pull-downs for each peptide; only the target purified.

With GCN5-A (enzyme), the binding result is recorded as “binds”.

With histone H4, the binding entry was “binds”.
